The record followed here is publication PMC8373065.

Results are given in words; binding and its absence hold for the method and conditions named. Tags and fused reporters may be left off the sequences shown.

The experiment addresses human METTL2A with N-terminal His6 tag (human) (UniProt Q96IZ6). Description: SEC; gel filtration of purified METTL2A on Superdex S200 and Superdex S75, mass from the elution volumes of standard proteins; both purified. On the technique in general: SEC sorts molecules by how far they enter the pores of the column.

B1: human METTL2A with N-terminal His6 tag (enzyme, UniProt Q96IZ6 1-378)
chain: MAGSYPEGAPAVLADKRQQFGSRFLRDPARVFHHNAWDNVEWSEEQAAAAERKVQENSIQRVCQEKQVDYEINAHKYWNDFYKIHENGFFKDRHWLFTEFPELAPSQNQNHLKDWFLENKSEVPECRNNEDGPGLIMEEQHKCSSKSLEHKTQTLPVEENVTQKISDLEICADEFPGSSATYRILEVGCGVGNTVFPILQTNNDPGLFVYCCDFSSTAIELVQTNSEYDPSRCFAFVHDLCDEEKSYPVPKGSLDIIILIFVLSAIVPDKMQKAINRLSRLLKPGGMMLLRDYGRYDMAQLRFKKGQCLSGNFYVRGDGTRVYFFTQEELDTLFTTAGLEKVQNLVDRRLQVNRGKQLTMYRVWIQCKYCKPLLSSTS
Consider B1, for which the binding result was “no binding”.
